Laboratory results as given in the supplement of paper PMC4604168 (melanoma cell lines).
This is one part of the list. Repeats are few or missing, and single values can be far off.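 Imaging used 1,536-well plates; nuclei positive for cleaved PARP by antibody were divided by total DNA-stained nuclei to yield the apoptosis fraction. Doses for screening kept most cells viable, and cell lines differ markedly in resting and induced cleaved-PARP levels.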

What follows are compounds tested on CBRC013 (line from a melanoma biopsy) (assay: cleaved PARP positive nuclei fraction relative to DMSO control; melanoma cells; higher = more apoptosis). Settings: library dose: low library concentration; 72 h.

Compound | cleaved PARP positive nuclei fraction
Cc1cc(SCc2sc(-c3ccc(C(F)(F)F)c(F)c3)nc2C)ccc1OCC(=O)O + Cn1cc(/C=C2\C(=O)Nc3cccnc32)c2ccccc21 [GW441756] (first compound 2 µM, partner dose 0.4 µM) | 44.4%
CCN(CC)CCCCNc1ncc2cc(-c3cc(OC)cc(OC)c3)c(NC(=O)NC(C)(C)C)nc2n1 + O=C(Oc1ccc([N+](=O)[O-])cc1)N1CCC(C(O)(c2ccc3c(c2)OCO3)c2ccc3c(c2)OCO3)CC1 [JZL184] (first compound 0.1 µM, partner dose 1 µM) | 75.3%
O=C(Nc1ccccc1)c1cc([N+](=O)[O-])ccc1Cl + O=C(Oc1ccc([N+](=O)[O-])cc1)N1CCC(C(O)(c2ccc3c(c2)OCO3)c2ccc3c(c2)OCO3)CC1 [JZL184] (first compound 2 µM, partner dose 1 µM) | 123%
Oc1nc(-c2ccc(C(F)(F)F)cc2)nc2c1CSCC2 + O=C(Oc1ccc([N+](=O)[O-])cc1)N1CCC(C(O)(c2ccc3c(c2)OCO3)c2ccc3c(c2)OCO3)CC1 [JZL184] (first compound 2 µM, partner dose 1 µM) | 46.2%
C[As](C)SC[C@H](NC(=O)CC[C@H](N)C(=O)O)C(=O)NCC(=O)O [Darinaparsin] + O=c1cc(-c2cccc3c2Sc2ccccc2S3)oc(N2CCOCC2)c1 [KU55933] (first compound 0.4 µM, partner dose 1 µM) | 88.1%
C[As](C)SC[C@H](NC(=O)CC[C@H](N)C(=O)O)C(=O)NCC(=O)O [Darinaparsin] + O=C(O)C(=O)Nc1sc2c(c1C(=O)O)CCNC2 [TCS401] (first compound 0.4 µM, partner dose 1.66667 µM) | 30.8%

Each compound was assayed on CBRC014 (line from a melanoma biopsy) in the same assay as above. Settings: library dose: low library concentration; 72 h.

Compound | cleaved PARP positive nuclei fraction
Cn1c(Nc2ccc(C(F)(F)F)cc2)nc2cc(Oc3ccnc(-c4ncc(C(F)(F)F)[nH]4)c3)ccc21 + O=C(Oc1ccc([N+](=O)[O-])cc1)N1CCC(C(O)(c2ccc3c(c2)OCO3)c2ccc3c(c2)OCO3)CC1 [JZL184] (first compound 0.08 µM, partner dose 1 µM) | 90.8%
C/C(O)=C(\C#N)C(=O)Nc1cc(Br)ccc1Br + COc1cc(N2CCC(N3CCN(C)CC3)CC2)ccc1Nc1ncc(Cl)c(Nc2ccccc2S(=O)(=O)C(C)C)n1 [NVP-TAE684] (first compound 2 µM, partner dose 0.08 µM) | 182%
Cc1cc(SCc2sc(-c3ccc(C(F)(F)F)c(F)c3)nc2C)ccc1OCC(=O)O + Cc1cc([N+](=O)[O-])ccc1NS(=O)(=O)c1cc(Cl)ccc1Cl [FH535] (first compound 2 µM, partner dose 1 µM) | 104%
C[As](C)SC[C@H](NC(=O)CC[C@H](N)C(=O)O)C(=O)NCC(=O)O [Darinaparsin] + O=S(=O)(c1ccccc1)N(CC(F)(F)F)c1ccc(C(O)(C(F)(F)F)C(F)(F)F)cc1 [T0901317] (first compound 0.4 µM, partner dose 1.4 µM) | 151%
Cc1cc(SCc2sc(-c3ccc(C(F)(F)F)c(F)c3)nc2C)ccc1OCC(=O)O + Oc1nc(-c2ccc(C(F)(F)F)cc2)nc2c1CSCC2 [XAV939] (first compound 2 µM, partner dose 2 µM) | 99.9%
CCc1ccc(CCOc2ccc(CC3SC(=O)NC3=O)cc2)nc1 (centres undefined) [pioglitazone] + Cc1cc(SCc2sc(-c3ccc(C(F)(F)F)c(F)c3)nc2C)ccc1OCC(=O)O [GW0742] (first compound 2 µM, partner dose 2 µM) | 91.2%
Cc1cc(N2CCOCC2)cc2[nH]c(-c3c(NC[C@@H](O)c4cccc(Cl)c4)cc[nH]c3=O)nc12 + O=C(Oc1ccc([N+](=O)[O-])cc1)N1CCC(C(O)(c2ccc3c(c2)OCO3)c2ccc3c(c2)OCO3)CC1 [JZL184] (first compound 0.2 µM, partner dose 1 µM) | 105%
C[As](C)SC[C@H](NC(=O)CC[C@H](N)C(=O)O)C(=O)NCC(=O)O [Darinaparsin] + O=C(Oc1ccc([N+](=O)[O-])cc1)N1CCC(C(O)(c2ccc3c(c2)OCO3)c2ccc3c(c2)OCO3)CC1 [JZL184] (first compound 0.4 µM, partner dose 1 µM) | 98.9%

Nothing new here: an excerpt of the list.
Compound | cleaved PARP positive nuclei fraction
Cc1cc(SCc2sc(-c3ccc(C(F)(F)F)c(F)c3)nc2C)ccc1OCC(=O)O + Oc1nc(-c2ccc(C(F)(F)F)cc2)nc2c1CSCC2 [XAV939] (first compound 2 µM, partner dose 2 µM) | 99.9%
CCc1ccc(CCOc2ccc(CC3SC(=O)NC3=O)cc2)nc1 (centres undefined) [pioglitazone] + Cc1cc(SCc2sc(-c3ccc(C(F)(F)F)c(F)c3)nc2C)ccc1OCC(=O)O [GW0742] (first compound 2 µM, partner dose 2 µM) | 91.2%
